# Reference: the supplement of paper PMC4683952
# Structures can show the parent of a compound that is named as a salt. This is one part of the list. Rule as the data show it: active = 2.5 or more and inactive = the rest. Single values are uncertain here, since repeats match poorly.
# Tested on: Lgr5 (MarsCy1-Lgr5-EGFP, U2OS)
# Test: cell-surface Lgr5 expression (SCi1 fluorescence, background-subtracted) relative to WT control (fold of WT control); higher = more Lgr5 at the plasma membrane
# Conditions: U2OS MarsCy1-Lgr5-EGFP stable; treatment time: overnight; library: Prestwick; 20 µM
row,SMILES,cell-surface Lgr5 expression
1,CC(=C(CCO)SSCC1CCCO1)N(C=O)Cc1cnc(C)nc1N (stereo in doubt) [Fursultiamine Hydrochloride],inactive: 1.18
2,C=C(NC(=O)C(=C)NC(=O)c1csc(C2=N[C@@H]3c4csc(n4)[C@H]4NC(=O)c5csc(n5)[C@H]([C@](C)(O)[C@@H](C)O)NC(=O)[C@H]5CSC(=N5)/C(=C/C)NC(=O)[C@H]([C@@H](C)O)NC(=O)c5csc(n5)[C@]3(CC2)NC(=O)[C@H](C)NC(=O)C(=C)NC(=O)[C@H](C)NC(=O)[C@H]([C@@H](C)CC)N[C@@H]2C=Cc3c([C@H](C)O)cc(nc3[C@H]2O)C(=O)O[C@@H]4C)n1)C(N)=O [Thiostrepton],inactive: 1.38
3,Cn1c(=O)c2c(ncn2CC(O)CO)n(C)c1=O (stereo not given) [Diprophylline],inactive: 1.49
4,CC[C@]12CCCN3CCc4c(n(c5ccccc45)[C@@](O)(C(=O)OC)C1)[C@@H]32 [Vincamine],inactive: 0.955
5,CC(CCc1ccc(O)cc1)NCCc1ccc(O)c(O)c1 (stereo not given) [Dobutamine hydrochloride],active: 3.06
6,Nc1ccc(S(N)(=O)=O)cc1 [Sulfanilamide],inactive: 1.91
7,CCSc1ccc2c(c1)N(CCCN1CCN(C)CC1)c1ccccc1S2 [Thiethylperazine malate],inactive: 1.1
8,CN(C)CCC(c1ccccc1)c1ccccn1 (stereo not given) [Pheniramine maleate],inactive: 1.45
9,CCN1CCCC1CNC(=O)c1cc(S(N)(=O)=O)ccc1OC (racemic) [Sulpiride],inactive: 1.51
10,O=C(O)c1cc(=O)c2c(OCC(O)COc3cccc4oc(C(=O)O)cc(=O)c34)cccc2o1 [Cromolyn disodium salt],inactive: 2.47
11,CCCCOc1ccc(CC(=O)NO)cc1 [Bufexamac],inactive: 1.08
12,CC(=O)OC(C)C[N+](C)(C)C (stereo not given) [Methacholine chloride],inactive: 1.79
13,C=CCc1ccccc1OCC(O)CNC(C)C (stereo not given) [Alprenolol hydrochloride],inactive: 1.37
14,NC[C@H]1CC[C@H](C(=O)O)CC1 [Tranexamic acid],inactive: 1.11
15,C=CC[N@@+]12CC[C@@]34c5ccccc5N5/C=C6/[C@H]7C[C@H]8[C@@]9(CC[N@@+]8(CC=C)C/C7=C/CO)c7ccccc7N(/C=C(/[C@@H](C[C@@H]31)/C(=C\CO)C2)[C@H]54)[C@@H]69 [Alcuronium chloride],inactive: 1.73
16,CCCC(C(=O)OCCN(CC)CC)(c1ccccc1)c1ccccc1 [Proadifen hydrochloride],inactive: 1.77
17,C[C@H](CCC(=O)NCC(=O)O)[C@H]1CC[C@H]2[C@@H]3[C@H](O)C[C@@H]4C[C@H](O)CC[C@]4(C)[C@H]3C[C@H](O)[C@]12C [Glycocholic acid],inactive: 1.85
18,Clc1ccc(COC(Cn2ccnc2)c2ccc(Cl)cc2Cl)cc1 (stereo not given) [Econazole nitrate],inactive: 1.7
19,Clc1ccccc1C(c1ccccc1)(c1ccccc1)n1ccnc1 [Clotrimazole],inactive: 1.25
20,"Cc1c(C)c2c(c(C)c1O)CC[C@@](C)(CCC[C@H](C)CCC[C@H](C)CCCC(C)C)O2 (racemic) [Tocopherol (R,S)]",inactive: 0.889
21,CCN(CCCc1ccccc1)CCCc1ccccc1 [Alverine citrate salt],inactive: 0.71
22,CCN(CC)C(=O)N1CCN(C)CC1 [Diethylcarbamazine citrate],inactive: 1.8

# 2 of these compounds, reformatted.
row	SMILES	cell-surface Lgr5 expression
2	C=C(NC(=O)C(=C)NC(=O)c1csc(C2=N[C@@H]3c4csc(n4)[C@H]4NC(=O)c5csc(n5)[C@H]([C@](C)(O)[C@@H](C)O)NC(=O)[C@H]5CSC(=N5)/C(=C/C)NC(=O)[C@H]([C@@H](C)O)NC(=O)c5csc(n5)[C@]3(CC2)NC(=O)[C@H](C)NC(=O)C(=C)NC(=O)[C@H](C)NC(=O)[C@H]([C@@H](C)CC)N[C@@H]2C=Cc3c([C@H](C)O)cc(nc3[C@H]2O)C(=O)O[C@@H]4C)n1)C(N)=O [Thiostrepton]	inactive: 1.38
4	CC[C@]12CCCN3CCc4c(n(c5ccccc45)[C@@](O)(C(=O)OC)C1)[C@@H]32 [Vincamine]	inactive: 0.955

# (listing goes on)

row,SMILES,cell-surface Lgr5 expression
1,"O=C(O)Cc1cc(I)c(Oc2ccc(O)c(I)c2)c(I)c1 [Tiratricol, 3,3',5-triiodothyroacetic acid]",active: 2.78
2,O=C(CCCCC(=O)Nc1c(I)cc(I)c(C(=O)O)c1I)Nc1c(I)cc(I)c(C(=O)O)c1I [Iodipamide],inactive: 1.54
3,CCCCOC(=O)c1ccc(O)cc1 [Butylparaben],inactive: 1.97
4,CC1=CC(=O)c2ccccc2C1=O [Menadione],inactive: 1.85
5,CC(=O)/N=c1/sc(S(N)(=O)=O)nn1C [Methazolamide],inactive: 1.74
6,N=C(N)N1CCc2ccccc2C1 [Debrisoquin sulfate],inactive: 1.6
7,CCCC(=O)Nc1ccc(OCC(O)CNC(C)C)c(C(C)=O)c1 (stereo not given) [Acebutolol hydrochloride],inactive: 1.91
8,CC(=O)Nc1ccc(OCC(O)CNC(C)C)cc1 (stereo not given) [Practolol],inactive: 1.63
9,O=C(Nc1ccccc1)OCC(CN1CCCCC1)OC(=O)Nc1ccccc1 (stereo not given) [Diperodon hydrochloride],inactive: 1.03
10,C[C@@H]1O[C@@H](O[C@H]2[C@H](Oc3cc(O)c4c(c3)O[C@H](c3ccc(O)cc3)CC4=O)O[C@H](CO)[C@@H](O)[C@@H]2O)[C@H](O)[C@H](O)[C@H]1O [Naringin hydrate],inactive: 0.926
11,N=C(N=C(N)N)N1CCOCC1 [Moroxidine hydrochloride],inactive: 1.18
12,Nc1nc(=O)[nH]cc1F [Flucytosine],inactive: 1.56
13,Cc1cccc(C)c1NC(=O)CN1CCN(CCCC(c2ccc(F)cc2)c2ccc(F)cc2)CC1 [Lidoflazine],inactive: 0.71
14,CC(=O)O[C@]1(C(C)=O)CC[C@H]2[C@@H]3C=C(C)C4=CC(=O)CC[C@]4(C)[C@H]3CC[C@@]21C [Megestrol acetate],active: 3.04
15,"O=C1C(O)=C(O)C(=O)C(O)=C1O [Tetrahydroxy-1,4-quinone monohydrate]",inactive: 0.272
16,Cc1nccn1CC1CCc2c(c3ccccc3n2C)C1=O (stereo not given) [Ondansetron Hydrochloride],inactive: 1.23
17,NC(=O)c1cc[n+](CC2=C(C(=O)[O-])N3C(=O)[C@@H](NC(=O)Cc4cccs4)[C@H]3SC2)cc1 [Cefalonium],inactive: 0.71
18,COc1ccc2c(c1)c(CC(=O)OCC(=O)O)c(C)n2C(=O)c1ccc(Cl)cc1 [Acemetacin],inactive: 1.3
19,COc1ccc2cc3[n+](cc2c1OC)CCc1cc2c(cc1-3)OCO2 [Berberine chloride],inactive: 1.87
20,CC(C)(C)NCC(O)COc1cccc2c1CC(O)C(O)C2 (stereo not given) [Nadolol],inactive: 2.32
21,CC1=C(C(=O)O)N2C(=O)[C@@H](NC(=O)[C@H](N)c3ccccc3)[C@H]2SC1 [Cephalexin monohydrate],inactive: 1.98
22,COc1cc2ccc(=O)oc2cc1O [Scopoletin],inactive: 1.28

row,SMILES,cell-surface Lgr5 expression
1,COc1cc(NS(=O)(=O)c2ccc(N)cc2)nc(OC)n1 [Sulfadimethoxine],inactive: 1.05
2,C=N[C@@H](C(=O)N[C@@H]1C(=O)N2[C@@H]1SC(C)(C)[C@@H]2C(=O)O)c1ccccc1 [Metampicillin sodium salt],inactive: 1.2
3,CC[N+](CC)(CC(=O)Nc1c(C)cccc1C)Cc1ccccc1 [Denatonium benzoate],inactive: 0.911
4,NCCC(=O)NCCc1c[nH]cn1 [Carcinine],inactive: 1.59
5,C[C@]12CC[C@H]3[C@@H](CCC4=CC(=O)CC[C@@]43C)[C@@H]1CC[C@@H]2C(=O)CO [Deoxycorticosterone],inactive: 2.16
6,Cc1cccc(Nc2ccncc2S(=O)(=O)NC(=O)NC(C)C)c1 [Torsemide],inactive: 1.32
7,CC(=O)CC(c1ccc([N+](=O)[O-])cc1)c1c(O)c2ccccc2oc1=O (stereo not given) [Acenocoumarol],inactive: 1.26
8,CCCCCCCCNC(C)C(O)c1ccc(SC(C)C)cc1 (stereo not given) [Suloctidil],inactive: 1.54
9,CC(C)NC(=N)NC(=N)Nc1ccc(Cl)cc1 [Proguanil hydrochloride],inactive: 1.01
10,COc1ccc2c3c1O[C@H]1C[C@@H](O)C=C[C@@]31CCN(C)C2 [Galanthamine hydrobromide],inactive: 1.64
11,Cc1nnc(SCC2=C(C(=O)O)N3C(=O)[C@@H](NC(=O)Cn4cnnn4)[C@H]3SC2)s1 [Cefazolin sodium salt],inactive: 1.81
12,O=c1[nH]c(=O)n([C@H]2C[C@H](O)[C@@H](CO)O2)cc1C(F)(F)F [Trifluridine],inactive: 0.948
13,CC1(C)S[C@@H]2[C@H](NC(=O)[C@H](N)c3ccccc3)C(=O)N2[C@H]1C(=O)OC1OC(=O)c2ccccc21 (stereo not given in full) [Talampicillin hydrochloride],inactive: 0.777
14,NC(=O)OCC(O)COc1ccc(Cl)cc1 (stereo not given) [Chlorphensin carbamate],inactive: 0.651
15,CN1C(C(=O)Nc2ccccn2)=C(O)c2ccccc2S1(=O)=O [Piroxicam],inactive: 1.36
16,COCCOC(=O)C1=C(C)NC(C)=C(C(=O)OC(C)C)C1c1cccc([N+](=O)[O-])c1 (stereo not given) [Nimodipine],inactive: 1.39
17,"Oc1cc(O)c2c(c1)O[C@H](c1ccc(O)c(O)c1)[C@@H](O)C2 (racemic) [Catechin-(+,-) hydrate]",inactive: 2.33
18,Cc1ccc(C)c(OCCCC(C)(C)C(=O)O)c1 [Gemfibrozil],inactive: 1.93
19,O=C(CCCN1CCC(O)(c2ccc(Cl)cc2)CC1)c1ccc(F)cc1 [Haloperidol],inactive: 0.881
20,CNCCC=C1c2ccccc2C=Cc2ccccc21 [Norcyclobenzaprine],inactive: 1.33
21,NC(=O)c1ccc[n+]([C@@H]2O[C@H](COP(=O)([O-])OP(=O)(O)OC[C@H]3O[C@@H](n4cnc5c(N)ncnc54)[C@H](O)[C@@H]3O)[C@@H](O)[C@H]2O)c1 [Nadide],inactive: 1.59

# Among those listed so far, six have an aryl methoxy group:
row,SMILES,cell-surface Lgr5 expression
9,CCN1CCCC1CNC(=O)c1cc(S(N)(=O)=O)ccc1OC (racemic) [Sulpiride],inactive: 1.51
18,COc1ccc2c(c1)c(CC(=O)OCC(=O)O)c(C)n2C(=O)c1ccc(Cl)cc1 [Acemetacin],inactive: 1.3
19,COc1ccc2cc3[n+](cc2c1OC)CCc1cc2c(cc1-3)OCO2 [Berberine chloride],inactive: 1.87
22,COc1cc2ccc(=O)oc2cc1O [Scopoletin],inactive: 1.28
1,COc1cc(NS(=O)(=O)c2ccc(N)cc2)nc(OC)n1 [Sulfadimethoxine],inactive: 1.05
10,COc1ccc2c3c1O[C@H]1C[C@@H](O)C=C[C@@]31CCN(C)C2 [Galanthamine hydrobromide],inactive: 1.64
